The target of experiment [1] is T1, myc-tagged 14-3-3θ (rat) (UniProt P68255).
T1 sequence: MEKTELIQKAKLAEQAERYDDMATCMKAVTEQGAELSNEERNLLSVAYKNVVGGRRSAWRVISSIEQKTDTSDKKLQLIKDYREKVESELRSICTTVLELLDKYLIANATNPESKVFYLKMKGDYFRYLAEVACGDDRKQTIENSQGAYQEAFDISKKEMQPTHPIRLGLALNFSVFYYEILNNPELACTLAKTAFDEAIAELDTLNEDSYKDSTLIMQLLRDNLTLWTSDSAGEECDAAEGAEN
The experiment can be described thus: co-IP; HEK293T cells co-transfected with the channel and myc-tagged 14-3-3; lysates in buffer A with 1% Triton X-100; IP with anti-myc or anti-rEag1 on protein G-Sepharose, 16 hrs at 4°C; also after 1-hr treatment of the cells with 1 µM okadaic acid or staurosporine.

Protein sequences, listed by entry. Tags and fused reporters are not part of them. Lines headed by an entry give the natural chain unless they say otherwise; changes in a name come on top. Residues count along the entry.
UniProt P62260: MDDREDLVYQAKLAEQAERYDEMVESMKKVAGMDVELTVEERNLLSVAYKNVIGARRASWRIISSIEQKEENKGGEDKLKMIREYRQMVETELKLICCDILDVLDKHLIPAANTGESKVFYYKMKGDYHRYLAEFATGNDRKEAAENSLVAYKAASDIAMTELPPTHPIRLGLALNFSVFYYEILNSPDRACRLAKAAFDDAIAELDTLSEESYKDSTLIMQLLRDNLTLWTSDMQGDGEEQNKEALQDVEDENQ
UniProt Q63472: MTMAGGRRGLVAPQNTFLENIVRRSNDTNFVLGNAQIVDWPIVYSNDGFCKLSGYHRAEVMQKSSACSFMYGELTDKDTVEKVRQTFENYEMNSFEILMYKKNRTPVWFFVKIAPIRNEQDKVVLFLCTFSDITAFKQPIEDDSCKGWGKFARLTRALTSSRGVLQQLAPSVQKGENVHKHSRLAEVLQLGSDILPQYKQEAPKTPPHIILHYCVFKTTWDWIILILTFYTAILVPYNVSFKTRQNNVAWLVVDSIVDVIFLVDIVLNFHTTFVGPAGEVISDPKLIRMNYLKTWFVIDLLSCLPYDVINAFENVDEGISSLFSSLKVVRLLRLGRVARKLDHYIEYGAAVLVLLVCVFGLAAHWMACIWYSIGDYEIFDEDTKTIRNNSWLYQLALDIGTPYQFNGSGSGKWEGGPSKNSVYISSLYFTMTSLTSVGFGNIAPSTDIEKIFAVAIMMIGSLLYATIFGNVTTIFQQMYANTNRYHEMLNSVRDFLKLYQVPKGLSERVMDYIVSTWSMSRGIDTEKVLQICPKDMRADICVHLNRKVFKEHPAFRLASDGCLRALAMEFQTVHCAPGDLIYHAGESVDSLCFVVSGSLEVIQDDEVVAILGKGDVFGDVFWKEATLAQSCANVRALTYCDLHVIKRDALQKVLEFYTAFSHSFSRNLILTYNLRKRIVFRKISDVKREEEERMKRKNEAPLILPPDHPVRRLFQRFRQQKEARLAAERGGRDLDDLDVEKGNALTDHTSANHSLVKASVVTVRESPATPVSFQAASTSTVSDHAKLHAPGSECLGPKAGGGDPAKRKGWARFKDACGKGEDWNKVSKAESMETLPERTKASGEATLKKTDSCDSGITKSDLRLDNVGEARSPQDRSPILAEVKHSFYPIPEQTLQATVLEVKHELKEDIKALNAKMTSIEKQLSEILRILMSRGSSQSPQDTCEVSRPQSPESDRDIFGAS
GST-N207 (GST fusion protein of the rEag1 N-terminus, amino acids 1-207): residues 1-207 of Q63472
GST-C1 (rEag1 amino acids 492-724): residues 492-724 of Q63472
GST-C0 (GST fusion protein of the rEag1 cytoplasmic C-terminus, amino acids 493-962): residues 493-962 of Q63472
GST-C1-2 (rEag1 CNBHD region, amino acids 561-672): residues 561-672 of Q63472
UniProt Q12809: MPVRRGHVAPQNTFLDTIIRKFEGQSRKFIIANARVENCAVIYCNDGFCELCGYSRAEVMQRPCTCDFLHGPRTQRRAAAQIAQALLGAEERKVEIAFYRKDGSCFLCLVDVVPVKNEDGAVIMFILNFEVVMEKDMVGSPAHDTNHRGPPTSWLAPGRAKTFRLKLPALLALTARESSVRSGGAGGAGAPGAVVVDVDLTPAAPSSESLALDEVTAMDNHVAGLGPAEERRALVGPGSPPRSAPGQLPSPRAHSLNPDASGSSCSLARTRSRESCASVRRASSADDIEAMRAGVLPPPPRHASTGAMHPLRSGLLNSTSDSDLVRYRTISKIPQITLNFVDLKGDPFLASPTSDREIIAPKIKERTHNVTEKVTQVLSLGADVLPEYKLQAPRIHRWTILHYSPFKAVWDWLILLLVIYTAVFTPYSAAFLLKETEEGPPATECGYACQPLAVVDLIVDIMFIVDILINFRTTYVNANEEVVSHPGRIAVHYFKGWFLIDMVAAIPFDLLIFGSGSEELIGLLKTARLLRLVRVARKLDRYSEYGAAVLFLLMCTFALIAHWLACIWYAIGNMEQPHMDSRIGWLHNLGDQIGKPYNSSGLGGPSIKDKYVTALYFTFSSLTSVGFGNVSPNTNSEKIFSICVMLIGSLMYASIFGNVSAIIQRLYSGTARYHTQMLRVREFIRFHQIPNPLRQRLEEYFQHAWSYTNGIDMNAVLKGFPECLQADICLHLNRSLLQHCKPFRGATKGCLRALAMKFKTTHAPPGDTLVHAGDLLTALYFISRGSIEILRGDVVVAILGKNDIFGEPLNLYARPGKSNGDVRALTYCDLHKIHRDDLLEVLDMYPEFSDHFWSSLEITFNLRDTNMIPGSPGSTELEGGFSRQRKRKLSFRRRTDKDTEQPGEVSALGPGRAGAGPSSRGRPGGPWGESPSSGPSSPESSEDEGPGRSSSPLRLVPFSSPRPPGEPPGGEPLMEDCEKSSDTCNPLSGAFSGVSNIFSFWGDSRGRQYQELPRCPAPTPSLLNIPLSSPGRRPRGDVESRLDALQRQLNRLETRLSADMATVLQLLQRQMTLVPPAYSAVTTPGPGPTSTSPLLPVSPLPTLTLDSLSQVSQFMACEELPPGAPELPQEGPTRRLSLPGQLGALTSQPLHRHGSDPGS
UniProt P63102: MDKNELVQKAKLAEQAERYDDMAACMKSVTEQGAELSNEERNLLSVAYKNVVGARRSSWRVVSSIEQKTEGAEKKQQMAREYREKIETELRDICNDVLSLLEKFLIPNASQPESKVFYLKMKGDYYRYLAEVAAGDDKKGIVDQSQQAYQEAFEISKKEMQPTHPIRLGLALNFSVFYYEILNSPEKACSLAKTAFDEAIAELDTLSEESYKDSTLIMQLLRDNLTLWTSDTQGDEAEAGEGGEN

Experiment [2] has as its target myc-tagged 14-3-3ε (rat) (UniProt P62260). The experiment is described as above.
The target in experiment [3] is GST-N207 (GST fusion protein of the rEag1 N-terminus, amino acids 1-207) (rat) (UniProt Q63472). Kind of experiment: pull-down; GST protein-coated glutathione-agarose beads (4-8 µg) incubated with lysates of HEK293T cells expressing myc-tagged 14-3-3 isoforms at 4°C overnight; washed with buffer A; immunoblot with anti-myc; only the target purified. In general terms: A western blot detects proteins with antibodies after separation by electrophoresis.

Experiment [4] concerns the target GST-C0 (GST fusion protein of the rEag1 cytoplasmic C-terminus, amino acids 493-962) (rat) (UniProt Q63472). Described as above.
Experiment [5] concerns the target T2, endogenous 14-3-3θ of rat forebrain (rat (endogenous in rat forebrain)) (UniProt P68255).
T2 sequence: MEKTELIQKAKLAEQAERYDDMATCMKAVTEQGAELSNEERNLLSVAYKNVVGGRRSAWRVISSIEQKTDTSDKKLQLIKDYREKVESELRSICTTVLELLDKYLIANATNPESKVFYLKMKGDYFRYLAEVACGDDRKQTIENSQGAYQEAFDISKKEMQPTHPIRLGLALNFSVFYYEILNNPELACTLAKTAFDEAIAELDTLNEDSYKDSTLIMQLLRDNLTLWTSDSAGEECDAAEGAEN
The experiment can be described thus: co-IP; detergent solubilized crude membrane (P2) fraction of rat forebrain homogenates; IP with anti-14-3-3θ, immunoblot with anti-rEag1; non-immune IgG as negative control.

Experiment [6] has as its target GST-C1-2 (rEag1 CNBHD region, amino acids 561-672) (rat) (UniProt Q63472). Kind of experiment: pull-down; GST protein-coated glutathione-agarose beads (4-8 µg) incubated with lysates of HEK293T cells expressing myc-tagged 14-3-3 isoforms at 4°C overnight; washed with buffer A; immunoblot with anti-myc; only the target purified.
For experiment [7], the target named is GST-C1 (rEag1 amino acids 492-724) (rat) (UniProt Q63472). The experiment is described as above.
Experiment [8] addresses full-length rEag1 (rat Eag1 potassium channel) (rat) (UniProt Q63472). Kind of experiment: co-IP; HEK293T cells co-transfected with the channel and myc-tagged 14-3-3; lysates in buffer A with 1% Triton X-100; IP with anti-myc or anti-rEag1 on protein G-Sepharose, 16 hrs at 4°C; also after 1-hr treatment of the cells with 1 µM okadaic acid or staurosporine.
Experiment [9] has as its target GST-N207 (GST fusion protein of the rEag1 N-terminus, amino acids 1-207) (rat) (UniProt Q63472). Kind of experiment: pull-down; GST protein-coated glutathione-agarose beads (4-8 µg) incubated with pre-cleared in vitro translated 14-3-3θ at 4°C overnight; washed with buffer A; immunoblot with anti-14-3-3θ; only the target purified.
The target of experiment [10] is GST-C0 (GST fusion protein of the rEag1 cytoplasmic C-terminus, amino acids 493-962) (rat) (UniProt Q63472). Described as above.
The target in experiment [11] is GST-N207 (GST fusion protein of the rEag1 N-terminus, amino acids 1-207) (rat) (UniProt Q63472). The experiment can be described thus: pull-down; GST-C0 or GST-N207 beads with lysates of HEK293T cells over-expressing the YFP vector, YFP-difopein or YFP-R18 mutant; immunoblot with anti-14-3-3θ; only the target purified.
The target of experiment [12] is GST-C0 (GST fusion protein of the rEag1 cytoplasmic C-terminus, amino acids 493-962) (rat) (UniProt Q63472). The description is as above.

No constants are given. Whether binding was seen depends on the method and setting. Binding seen in cells or lysates may run through a third protein. Some entries that bind do so weakly or less than the wild type. For some assays here: Where a sequence is shown, tags or fusion partners need not be part of it.

On to “full-length rEag1 (rat Eag1 potassium channel) (from UniProt Q63472 1-962)”, for which, in experiment [1], the binding entry was “binds”.

For the molecule “Herg channel (from UniProt Q12809 1-1159)”, the binding entry in experiment [2] is on record as “binds”.

Regarding “myc-tagged 14-3-3 ζ/δ isoform (from UniProt P63102 1-245)”, the binding entry in experiment [3] and in [4] was “binds” in each case.

For the molecule “endogenous rEag1 of rat forebrain (from UniProt Q63472 1-962)”, the binding result in experiment [5] is given as “binds”.

For the molecule “myc-tagged 14-3-3ε (from UniProt P62260 1-255)”, the binding entry in [3] and in experiment [4] was “no binding” each time.

B1: myc-tagged 14-3-3 α/β isoform (protein, UniProt P35213 1-246)
chain: MTMDKSELVQKAKLAEQAERYDDMAAAMKAVTEQGHELSNEERNLLSVAYKNVVGARRSSWRVISSIEQKTERNEKKQQMGKEYREKIEAELQDICSDVLELLDKYLILNATHAESKVFYLKMKGDYFRYLSEVASGDNKQTTVSNSQQAYQEAFEISKKEMQPTHPIRLGLALNFSVFYYEILNSPEKACSLAKTAFDEAIAELDTLNEESYKDSTLIMQLLRDNLTLWTSENQGDEGDAGEGEN
B1: the binding result in [3] and in experiment [4] was “binds” each time.

B2: myc-tagged 14-3-3 η isoform (protein, UniProt P68511 1-246)
chain: MGDREQLLQRARLAEQAERYDDMASAMKAVTELNEPLSNEDRNLLSVAYKNVVGARRSSWRVISSIEQKTMADGNEKKLEKVKAYREKIEKELETVCNDVLALLDKFLIKNCNDFQYESKVFYLKMKGDYYRYLAEVASGEKKNSVVEASEAAYKEAFEISKEHMQPTHPIRLGLALNFSVFYYEIQNAPEQACLLAKQAFDDAIAELDTLNEDSYKDSTLIMQLLRDNLTLWTSDQQDEEAGEGN
For the molecule B2, the binding entry in experiment [3] and in experiment [4] was “binds” throughout.

B3: myc-tagged 14-3-3 γ isoform (protein, UniProt P61983 1-247)
chain: MVDREQLVQKARLAEQAERYDDMAAAMKNVTELNEPLSNEERNLLSVAYKNVVGARRSSWRVISSIEQKTSADGNEKKIEMVRAYREKIEKELEAVCQDVLSLLDNYLIKNCSETQYESKVFYLKMKGDYYRYLAEVATGEKRATVVESSEKAYSEAHEISKEHMQPTHPIRLGLALNYSVFYYEIQNAPEQACHLAKTAFDDAIAELDTLNEDSYKDSTLIMQLLRDNLTLWTSDQQDDDGGEGNN
Turning to B3, the binding result in experiment [3] and in [4] was “binds” in each case.

B4: rEag2 (rat Eag2 potassium channel) (protein, UniProt Q9EPI9 1-988)
chain: MPGGKRGLVAPQNTFLENIVRRSSESSFLLGNAQIVDWPVVYSNDGFCKLSGYHRADVMQKSSTCSFMYGELTDKKTIEKVRQTFDNYESNCFEVLLYKKNRTPVWFYMQIAPIRNEHEKVVLFLCTFKDITLFKQPIEDDSTKGWTKFARLTRALTNSRSVLQQLTPMNKTETVHKHSRLAEVLQLGSDILPQYKQEAPKTPPHIILHYCAFKTTWDWVILILTFYTAIMVPYNVSFKTKQNNIAWLVLDSVVDVIFLVDIVLNFHTTFVGPGGEVISDPKLIRMNYLKTWFVIDLLSCLPYDIINAFENVDEGISSLFSSLKVVRLLRLGRVARKLDHYLEYGAAVLVLLVCVFGLVAHWLACIWYSIGDYEVIDEVTNTIQIDSWLYQLALSIGTPYRYNTSAGIWEGGPSKDSLYVSSLYFTMTSLTTIGFGNIAPTTDVEKMFSVAMMMVGSLLYATIFGNVTTIFQQMYANTNRYHEMLNNVRDFLKLYQVPKGLSERVMDYIVSTWSMSKGIDTEKVLSICPKDMRADICVHLNRKVFNEHPAFRLASDGCLRALAVEFQTIHCAPGDLIYHAGESVDALCFVVSGSLEVIQDEEVVAILGKGDVFGDIFWKETTLAHACANVRALTYCDLHIIKREALLKVLDFYTAFANSFSRNLTLTCNLRKRIIFRKISDVKKEEEERLRQKNEVTLSIPVDHPVRKLFQKFKQQKELRNQGSAQSDPERSQLQVESRPLQNGASITGTSVVTVSQITPIQTSLAYVKTSETLKQNNRDAMELKPNGGAEPKCLKVNSPIRMKNGNGKGWLRLKNNMGAHEEKKEEWNNVTKAESMGLLSEDPKGSDSENSVTKNPLRKTDSCDSGITKSDLRLDKAGEARSPLEHSPSQADAKHPFYPIPEQALQTTLQEVKHELKEDIQLLSCRMTALEKQVAEILKLLSEKSVPQTSSPKPQIPLQVPPQIPCQDIFSVSRPESPESDKDEINF
Turning to B4, the binding entry in [1] was “no binding”.

B5: myc-tagged 14-3-3θ (protein, UniProt P68255 1-245)
chain: MEKTELIQKAKLAEQAERYDDMATCMKAVTEQGAELSNEERNLLSVAYKNVVGGRRSAWRVISSIEQKTDTSDKKLQLIKDYREKVESELRSICTTVLELLDKYLIANATNPESKVFYLKMKGDYFRYLAEVACGDDRKQTIENSQGAYQEAFDISKKEMQPTHPIRLGLALNFSVFYYEILNNPELACTLAKTAFDEAIAELDTLNEDSYKDSTLIMQLLRDNLTLWTSDSAGEECDAAEGAEN
For the molecule B5, the binding entry in experiment [6], in experiment [3], in experiment [4], in experiment [7] and in experiment [8] was “binds” throughout.

B6: in vitro translated 14-3-3θ (protein, UniProt P68255 1-245)
chain: MEKTELIQKAKLAEQAERYDDMATCMKAVTEQGAELSNEERNLLSVAYKNVVGGRRSAWRVISSIEQKTDTSDKKLQLIKDYREKVESELRSICTTVLELLDKYLIANATNPESKVFYLKMKGDYFRYLAEVACGDDRKQTIENSQGAYQEAFDISKKEMQPTHPIRLGLALNFSVFYYEILNNPELACTLAKTAFDEAIAELDTLNEDSYKDSTLIMQLLRDNLTLWTSDSAGEECDAAEGAEN
On to B6, for which the binding result in experiment [9] and in experiment [10] was “binds” throughout.

B7: 14-3-3θ in lysates of HEK293T cells over-expressing the YFP vector, YFP-difopein or YFP-R18 mutant (protein, UniProt P27348 1-245)
chain: MEKTELIQKAKLAEQAERYDDMATCMKAVTEQGAELSNEERNLLSVAYKNVVGGRRSAWRVISSIEQKTDTSDKKLQLIKDYREKVESELRSICTTVLELLDKYLIANATNPESKVFYLKMKGDYFRYLAEVACGDDRKQTIDNSQGAYQEAFDISKKEMQPTHPIRLGLALNFSVFYYEILNNPELACTLAKTAFDEAIAELDTLNEDSYKDSTLIMQLLRDNLTLWTSDSAGEECDAAEGAEN
Consider B7, for which the binding entry in experiment [11] and in experiment [12] was “binds” each time.

For the origin of these results see PMC3401112.
